Source: the supplement of paper PMC8728848
This is one part of the list.

Assays:
Assay in all cases: glycan array binding signal (z-score within array); higher = stronger binding
Details in all cases: glycan notation: IUPAC condensed, linker removed
[1] = molecular target: Fuc(a1-2)Gal
How it was run: (§1)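 Glycan array binding is given as a within-array Z-score, which can be read as non-binding when negative. The arrays, 3228 of them, came from the Consortium for Functional Glycomics database and were retained only where the protein sequence was available. Z-scores were averaged across arrays of the same protein sequence at different concentrations or buffers and across linkers.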

[2] = molecular target: Fuc(a1-2)Gal(b1-3)GalNAc
How it was run: as §1

[3] = molecular target: Fuc(a1-2)Gal(b1-3)GalNAc(a1-3)[Fuc(a1-2)]Gal(b1-4)Glc
How it was run: as §1

[4] = molecular target: Fuc(a1-2)Gal(b1-3)GalNAc(a1-3)[Fuc(a1-2)]Gal(b1-4)GlcNAc
How it was run: as §1

[5] = molecular target: Fuc(a1-2)Gal(b1-3)GalNAc(b1-3)Gal
How it was run: as §1

[6] = molecular target: Fuc(a1-2)Gal(b1-3)GalNAc(b1-3)Gal(a1-4)Gal(b1-4)Glc
How it was run: as §1

[7] = molecular target: Fuc(a1-2)Gal(b1-3)GalNAc(b1-4)[Neu5Ac(a2-3)]Gal(b1-4)Glc
How it was run: as §1

[8] = molecular target: Fuc(a1-2)Gal(b1-3)GlcNAc
How it was run: as §1

[9] = molecular target: Fuc(a1-2)Gal(b1-3)GlcNAc(b1-2)Man(a1-3)[Fuc(a1-2)Gal(b1-3)GlcNAc(b1-2)Man(a1-6)]Man(b1-4)GlcNAc(b1-4)GlcNAc
How it was run: as §1

[10] = molecular target: Fuc(a1-2)Gal(b1-3)GlcNAc(b1-2)Man(a1-3)[Fuc(a1-2)Gal(b1-3)GlcNAc(b1-2)Man(a1-6)]Man(b1-4)GlcNAc(b1-4)[Fuc(a1-6)]GlcNAc
How it was run: as §1

[11] = molecular target: Fuc(a1-2)Gal(b1-3)GlcNAc(b1-3)Gal(b1-4)Glc
How it was run: as §1

[12] = molecular target: Fuc(a1-2)Gal(b1-3)GlcNAc(b1-3)GalNAc
How it was run: as §1

[13] = molecular target: Fuc(a1-2)Gal(b1-3)GlcNAc(b1-3)[Fuc(a1-2)Gal(b1-3)GlcNAc(b1-6)]GalNAc
How it was run: as §1

[14] = molecular target: Fuc(a1-2)Gal(b1-3)GlcNAc(b1-3)[Gal(b1-4)GlcNAc(b1-6)]Gal(b1-4)Glc
How it was run: as §1

[15] = molecular target: Fuc(a1-2)Gal(b1-3)GlcNAc(b1-3)[Neu5Ac(a2-6)Gal(b1-4)GlcNAc(b1-6)]Gal(b1-4)Glc
How it was run: as §1

[16] = molecular target: Fuc(a1-2)Gal(b1-3)GlcNAc6S
How it was run: as §1

[17] = molecular target: Fuc(a1-2)Gal(b1-3)[Fuc(a1-4)]GlcNAc
How it was run: as §1

[18] = molecular target: Fuc(a1-2)Gal(b1-3)[Fuc(a1-4)]GlcNAc(b1-2)Man(a1-3)[Fuc(a1-2)Gal(b1-3)[Fuc(a1-4)]GlcNAc(b1-2)Man(a1-3)]Man(b1-4)GlcNAc(b1-4)GlcNAc
How it was run: as §1

[19] = molecular target: Fuc(a1-2)Gal(b1-3)[Fuc(a1-4)]GlcNAc(b1-2)Man(a1-3)[Fuc(a1-2)Gal(b1-3)[Fuc(a1-4)]GlcNAc(b1-2)Man(a1-6)]Man(b1-4)GlcNAc(b1-4)[Fuc(a1-6)]GlcNAc(b1-4)[Fuc(a1-6)]GlcNAc
How it was run: as §1

[20] = molecular target: Fuc(a1-2)Gal(b1-3)[Fuc(a1-4)]GlcNAc(b1-3)[Fuc(a1-3)[Gal(b1-4)]GlcNAc(b1-6)]Gal(b1-4)Glc
How it was run: as §1

[21] = molecular target: Fuc(a1-2)Gal(b1-3)[Fuc(a1-4)]GlcNAc(b1-3)[Gal(b1-4)GlcNAc(b1-6)]Gal(b1-4)Glc
How it was run: as §1

[22] = molecular target: Fuc(a1-2)Gal(b1-4)Fuc(a1-3)]GlcNAc(b1-2)Man(a1-3)[Fuc(a1-2)Gal(b1-4)[Fuc(a1-3)]GlcNAc(b1-2)Man(a1-6)]Man(b1-4)GlcNAc(b1-4)GlcNAc
How it was run: as §1

[23] = molecular target: Fuc(a1-2)Gal(b1-4)Glc
How it was run: as §1

[24] = molecular target: Fuc(a1-2)Gal(b1-4)Glc6S
How it was run: as §1

[25] = molecular target: Fuc(a1-2)Gal(b1-4)GlcNAc
How it was run: as §1

[26] = molecular target: Fuc(a1-2)Gal(b1-4)GlcNAc(b1-2)Man
How it was run: as §1

[27] = molecular target: Fuc(a1-2)Gal(b1-4)GlcNAc(b1-2)Man(a1-3)[Fuc(a1-2)Gal(b1-4)GlcNAc(b1-2)Man(a1-6)]Man(b1-4)GlcNAc(b1-4)GlcNAc
How it was run: as §1

[28] = molecular target: Fuc(a1-2)Gal(b1-4)GlcNAc(b1-2)Man(a1-3)[Fuc(a1-2)Gal(b1-4)GlcNAc(b1-2)Man(a1-6)]Man(b1-4)GlcNAc(b1-4)[Fuc(a1-6)]GlcNAc
How it was run: as §1

[29] = molecular target: Fuc(a1-2)Gal(b1-4)GlcNAc(b1-2)[Fuc(a1-2)Gal(b1-4)GlcNAc(b1-4)]Man(a1-3)[Fuc(a1-2)Gal(b1-4)GlcNAc(b1-2)Man(a1-6)]Man(b1-4)GlcNAc(b1-4)GlcNAc
How it was run: as §1

[30] = molecular target: Fuc(a1-2)Gal(b1-4)GlcNAc(b1-3)Gal(b1-4)GlcNAc
How it was run: as §1

[31] = molecular target: Fuc(a1-2)Gal(b1-4)GlcNAc(b1-3)Gal(b1-4)GlcNAc(b1-2)Man(a1-3)[Fuc(a1-2)Gal(b1-4)GlcNAc(b1-3)Gal(b1-4)GlcNAc(b1-2)Man(a1-6)]Man(b1-4)GlcNAc(b1-4)GlcNAc
How it was run: as §1

[32] = molecular target: Fuc(a1-2)Gal(b1-4)GlcNAc(b1-3)Gal(b1-4)GlcNAc(b1-3)Gal(b1-4)GlcNAc
How it was run: as §1

[33] = molecular target: Fuc(a1-2)Gal(b1-4)GlcNAc(b1-3)GalNAc
How it was run: as §1

[34] = molecular target: Fuc(a1-2)Gal(b1-4)GlcNAc(b1-3)[Fuc(a1-2)Gal(b1-4)GlcNAc(b1-6)]GalNAc
How it was run: as §1

[35] = molecular target: Fuc(a1-2)Gal(b1-4)GlcNAc(b1-3)[Fuc(a1-3)[Gal(b1-4)]GlcNAc(b1-6)]Gal(b1-4)Glc
How it was run: as §1

[36] = molecular target: Fuc(a1-2)Gal(b1-4)GlcNAc(b1-6)GalNAc
How it was run: as §1

[37] = molecular target: Fuc(a1-2)Gal(b1-4)GlcNAc6S
How it was run: as §1

[38] = molecular target: Fuc(a1-2)Gal(b1-4)[Fuc(a1-3)]GlcNAc
How it was run: as §1

[39] = molecular target: Fuc(a1-2)Gal(b1-4)[Fuc(a1-3)]GlcNAc(b1-2)Man(a1-3)[Fuc(a1-2)Gal(b1-4)[Fuc(a1-3)]GlcNAc(b1-2)Man(a1-6)]Man(b1-4)GlcNAc(b1-4)[Fuc(a1-6)]GlcNAc
How it was run: as §1

[40] = molecular target: Fuc(a1-2)Gal(b1-4)[Fuc(a1-3)]GlcNAc(b1-2)[Fuc(a1-2)Gal(b1-4)[Fuc(a1-3)]GlcNAc(b1-4)]Man(a1-3)[Fuc(a1-2)Gal(b1-4)[Fuc(a1-3)]GlcNAc(b1-2)Man(a1-6)]Man(b1-4)GlcNAc(b1-4)GlcNAc
How it was run: as §1

[41] = molecular target: Fuc(a1-2)Gal(b1-4)[Fuc(a1-3)]GlcNAc(b1-3)Gal(b1-4)[Fuc(a1-3)]GlcNAc
How it was run: as §1

[42] = molecular target: Fuc(a1-2)Gal(b1-4)[Fuc(a1-3)]GlcNAc(b1-3)Gal(b1-4)[Fuc(a1-3)]GlcNAc(b1-3)Gal(b1-4)[Fuc(a1-3)]GlcNAc
How it was run: as §1

[43] = molecular target: Fuc(a1-2)Gal(b1-4)[Fuc(a1-3)]GlcNAc(b1-3)GalNAc
How it was run: as §1

[44] = molecular target: Fuc(a1-2)Gal(b1-4)[Fuc(a1-3)]GlcNAc(b1-3)[Neu5Ac(a2-6)Gal(b1-4)GlcNAc(b1-6)]Gal(b1-4)Glc
How it was run: as §1

[45] = molecular target: Fuc(a1-2)Gal3S(b1-4)GlcNAc
How it was run: as §1

B1: EfCBM33A (Enterococcus faecalis), Q838S1 (protein)
chain: MKKSLLTIVLAFSFVLGGAALAPTVSEAHGYVASPGSRAFFGSSAGGNLNTNVGRAQWEPQSIEAPKNTFITGKLASAGVSGFEPLDEQTATRWHKTNITTGPLDITWNLTAQHRTASWDYYITKNGWNPNQPLDIKNFDKIASIDGKQEVPNKVVKQTINIPTDRKGYHVIYAVWGIGDTVNAFYQAIDVNIQ
[1]
  glycan array binding signal (z-score): 1.11
[2]
  glycan array binding signal (z-score): -0.633
[3]
  glycan array binding signal (z-score): -0.182
[4]
  glycan array binding signal (z-score): -0.436
[5]
  glycan array binding signal (z-score): -0.384
[6]
  glycan array binding signal (z-score): 0.026
[7]
  glycan array binding signal (z-score): -0.51
[8]
  glycan array binding signal (z-score): -0.353
[9]
  glycan array binding signal (z-score): 0.104
[10]
  glycan array binding signal (z-score): 1.69
[11]
  glycan array binding signal (z-score): -1.05
[12]
  glycan array binding signal (z-score): -0.837
[13]
  glycan array binding signal (z-score): 0.402
[14]
  glycan array binding signal (z-score): -0.026
[15]
  glycan array binding signal (z-score): -1.04
[16]
  glycan array binding signal (z-score): -0.541
[17]
  glycan array binding signal (z-score): -0.477
[18]
  glycan array binding signal (z-score): 0.371
[19]
  glycan array binding signal (z-score): 0.645
[20]
  glycan array binding signal (z-score): -1.2
[21]
  glycan array binding signal (z-score): 0.073
[22]
  glycan array binding signal (z-score): 0.922
[23]
  glycan array binding signal (z-score): 0.342
[24]
  glycan array binding signal (z-score): -0.44
[25]
  glycan array binding signal (z-score): -0.251
[26]
  glycan array binding signal (z-score): -0.389
[27]
  glycan array binding signal (z-score): -0.877
[28]
  glycan array binding signal (z-score): -0.241
[29]
  glycan array binding signal (z-score): 1.06
[30]
  glycan array binding signal (z-score): 0.573
[31]
  glycan array binding signal (z-score): 1.36
[32]
  glycan array binding signal (z-score): -0.368
[33]
  glycan array binding signal (z-score): 0.433
[34]
  glycan array binding signal (z-score): 0.218
[35]
  glycan array binding signal (z-score): 0.997
[36]
  glycan array binding signal (z-score): 1.05
[37]
  glycan array binding signal (z-score): -1.63
[38]
  glycan array binding signal (z-score): 0.633
[39]
  glycan array binding signal (z-score): 0.665
[40]
  glycan array binding signal (z-score): -0.786
[41]
  glycan array binding signal (z-score): 0.784
[42]
  glycan array binding signal (z-score): 0.201
[43]
  glycan array binding signal (z-score): -0.936
[44]
  glycan array binding signal (z-score): 0.413
[45]
  glycan array binding signal (z-score): 0.017
